The full ranking holds about 1,200 compounds; the median of “activity change, negative = cytotoxic” is about -53, and the highest 2% start at about 78. This is one part of the list. Potency and affinity values are given separately. Where no call is shown, the source marks the result inconclusive.
Assay: cytotoxicity toward BJ-TERT-LT-ST fibroblasts, dose response, cell-based, RAS-independent, luminescence (AID 1935)
Conditions: BJ-TERT-LT-ST fibroblast viability, ATP luminescence; at 15 µM (top of the series)

Going from `COc1cc2c(c(OC)c1OC)-c1ccc(O)c(=O)cc1C(NC(C)=O)CC2` (stereo not drawn) to `C=C1C(=O)O[C@@H]2C[C@@H](C)[C@@H]3C=CC(=O)[C@@]3(C)[C@@H](OC(=O)CC(=O)O[C@H]3[C@@H]4C(=C)C(=O)O[C@@H]4C[C@@H](C)[C@@H]4C=CC(=O)[C@]43C)[C@H]12`, the activity change, negative = cytotoxic falls from -56.1% to -101%.

In the case of `C/C=C(\C)C(=O)N[C@@H](c1ccccc1)[C@@H](O)C(=O)O[C@H]1C[C@@]2(O)[C@@H](OC(=O)c3ccccc3)C3[C@](C)(C(=O)[C@H](OC(C)=O)C(=C1C)C2(C)C)[C@H](O)C[C@H]1OC[C@@]31OC(C)=O` (stereo partly drawn), the activity change, negative = cytotoxic is reported as -61%.

Source: PubChem BioAssay AID1935 (Broad Institute, 2009)
